According to patent publication US20220233542A1, “COMPOSITIONS AND METHODS FOR PREVENTING OR TREATING HUMAN IMMUNODEFICIENCY VIRUS ASSOCIATED PULMONARY ARTERIAL HYPERTENSION” (University of Georgia Research Foundation, priority 2019, published 2022):

Assays:
[1] = SIV/Statin Group 2 compared with SIV-PAH+ controls

CC(C)c1c(C(=O)Nc2ccccc2)c(-c2ccccc2)c(-c2ccc(F)cc2)n1CC[C@@H](O)C[C@@H](O)CC(=O)O [atorvastatin]
terminal levels of plasma TNF-α (TNF-α; [1]): significantly lower
terminal plasma levels of TNF-α (TNF-α; SIV/Statin Group 3): not significantly reduced
terminal levels of plasma MIP-1α (MIP-1α; [1]): significantly lower
terminal plasma levels of MIP-1α (MIP-1α; SIV/Statin Group 3): not significantly reduced
